From patent publication US9170264B2, “Methods of monitoring for adherence to aripiprazole therapy” (Ameritox, Ltd., priority 2013, dated 2015)

Assays:
Type in all cases: in vivo, human
[1] = Urine testing for compliance over 5 days, patients prescribed 30 mg/day Abilify (Example 3); settings: 30 mg Abilify; 15 opportunities
Procedure: (§1) The concentration of any analyte described in the present disclosure may be determined (e.g., measured) by any suitable quantification method. In some embodiments, the concentration of an analyte (e.g., aripiprazole, dehydroaripiprazole, and/or OPC3373) is measured by tandem liquid chromatography-mass spectrometry-mass spectrometry (“LC/MSMS”). In some embodiments, the concentration of an analyte (e.g., aripiprazole, dehydroaripiprazole, and/or OPC3373) is measured by tandem liquid chromatography-High Resolution mass spectrometry (Time of Flight (TOF)) (“LC/MS(TOF)”). In some embodiments, the concentration of an analyte (e.g., aripiprazole, dehydroaripiprazole, and/or OPC3373) is measured by direct injection mass spectrometry-mass spectrometry ([…]) e.g., such systems as RapidFire™ (Agilent) or Laser Diode Thermal Desorption (“LDTD”) (Phytronix) to introduce samples into the mass spectrometer; either triple quadrupole (i.e., MSMS) or exact mass (i.e., Time of Flight, Orbitrap, etc.) instruments
The urine of 5 patients who were prescribed 30 mg of Abilify® (aripiprazole) was tested for compliance over 5 days (Table 3). […] Without OPC3373, only 93% were determined to be positive with one patient either having stopped taking their medicine between day 4 and 5 or just being below the reporting cutoffs for both aripiprazole and dehydroaripiprazole. Thus, use of OPC3373 as a urine biomarker even at this relatively high dose adds value to compliance monitoring for Abilify®.

[2] = Urine testing for compliance over 5 days, patients prescribed 20 mg/day Abilify (Example 4); settings: 20 mg Abilify; 66 opportunities
Procedure: as §1
The urine of 22 patients who were prescribed 20 mg of Ability (e.g., aripiprazole) was tested for compliance over 5 days (Table 5). […] Without OPC3373, only 85% were determined to be positive with patients just being below the reporting cutoffs for both aripiprazole and dehydroaripiprazole. Thus, use of OPC3373 as a urine biomarker even at this relatively high dose adds value to compliance monitoring for Abilify®.

[3] = Urine testing for compliance over 5 days, patients prescribed 15 mg/day Abilify (Example 5); settings: 15 mg Abilify; 69 opportunities
Procedure: as §1
The urine of 23 patients who were prescribed 15 mg of Abilify® (aripiprazole) was tested for compliance over 5 days (Table 7). […] Without OPC3373, only 78% were determined to be positive with patients just being below the reporting cutoffs for both aripiprazole and dehydroaripiprazole. […] Thus, use of OPC3373 as a urine biomarker at this dose adds value to compliance monitoring for Abilify®.

[4] = Urine testing for compliance over 5 days, patients prescribed 10 mg/day Abilify (Example 6); settings: 10 mg Abilify; 111 opportunities
Procedure: as §1
The urine of 37 patients who were prescribed 10 mg of Abilify® (aripiprazole) was tested for compliance over 5 days (Table 9). […] Without OPC3373, only 61% were determined to be positive with patients just being below the reporting cutoffs for both aripiprazole and dehydroaripiprazole. Thus, use of OPC3373 as a urine biomarker at this dose adds value to compliance monitoring for Abilify®.

[5] = Urine testing for compliance over 5 days, patients prescribed 2 mg/day Abilify (Example 8); settings: for % Positive (urine): 2 mg/day Abilify
Procedure: as §1
The urine of 15 patients who were prescribed 2 mg of Abilify® (aripiprazole) was tested for compliance over 5 days (Table 14). […] Without OPC3373, only 24% were determined to be positive with patients just being below the reporting cutoffs for both aripiprazole and dehydroaripiprazole. Thus, use of OPC3373 as a urine biomarker at this lower dose makes compliance monitoring for Abilify® possible. […] However, OPC3373 in subject M confirmed the subject's adherence to aripirazole therapy despite the low observed creatinine level.

[6] = Levels of OPC3373, aripiprazole and dehydroaripiprazole in urine of humans taking chronic doses of aripiprazole (Example 1); settings: 22 specimens
Procedure: as §1
The appearance of OPC3373 (4-[(2-Oxo-1,2,3,4-tetrahydro-7-quinolinyl)oxy]butanoic acid, BMS-337047) as the major aripiprazole metabolite in the urine can be used to help monitor patient adherence to aripiprazole therapy. […]

Row | SMILES | determined to be positive without OPC3373 (aripiprazole and dehydroaripiprazole only) [1] [%] | determined to be positive without OPC3373 (aripiprazole and dehydroaripiprazole only) [2] [%] | determined to be positive without OPC3373 (aripiprazole and dehydroaripiprazole only) [3] [%] | determined to be positive without OPC3373 (aripiprazole and dehydroaripiprazole only) [4] [%] | determined to be positive without OPC3373 (aripiprazole and dehydroaripiprazole only) ([5]; 2 mg Abilify, 45 opportunities) [%] | % Positive (urine) ([5]; Day 1) [%] | % Positive (urine) ([5]; Day 4) | % Positive (urine) ([5]; Day 5) | % POS with OPC3373 only [6] [%] | % NEG at 100/5/5 ng/mL Cutoff ([6]; cutoffs OPC3373/dehydroaripiprazole/aripiprazole) [%] | correct identification of those taking the prescribed medicine, use of OPC3373 [1] [%] | correct identification of those taking the prescribed medicine, use of OPC3373 [2] [%] | correct identification of those taking the prescribed medicine, use of OPC3373 [3] [%] | correct identification of those taking the prescribed medicine, use of OPC3373 [4] [%] | correct identification of those taking the prescribed medicine, use of OPC3373 ([5]; 2 mg Abilify, 45 opportunities) [%]
1 | O=c1ccc2ccc(OCCCCN3CCN(c4cccc(Cl)c4Cl)CC3)cc2[nH]1 [Dehydroaripiprazole, dehydroaripiprazole] | 93 | 85 | 78 | 61 | 24 | 7 | 0 (0%) | 0 (0%) | – | – | – | – | – | – | –
2 | O=C(O)CCCOc1ccc2c(c1)NC(=O)CC2 [OPC3373, 4-[(2-Oxo-1,2,3,4-tetrahydro-7-quinolinyl)oxy]butanoic acid] | – | – | – | – | – | 100 | 100% | 93% | 22.7 | 27.2 | 100 | 100 | 99 | 99 | 87
3 | O=C1CCc2ccc(OCCCCN3CCN(c4cccc(Cl)c4Cl)CC3)cc2N1 [Aripiprazole] | 93 | 85 | 78 | 61 | 24 | 53 | 53% | 47% | – | – | – | – | – | – | –
